For some of these results: The exact form of at least one protein or probe is not confirmed. For some of these results: The comparison behind a weaker result is the experiment's own reference, which may not be listed here.
What was measured:
[1] = target: L7Ae (Archaeoglobus fulgidus) (UniProt O29494); experiment: competition with a labelled probe; conditions: Box C/D competitor restores translation of L7-UTR2 inhibited by L7Ae; purified recombinant protein; protein details: His tag (pET-28b+, NdeI/XhoI); label: 32P
[2] = target: L7Ae (Archaeoglobus fulgidus) (UniProt O29494); experiment: inhibition of the protein; conditions: purified recombinant protein, protein details: His tag (pET-28b+, NdeI/XhoI)
[3] = target: L7Ae (Archaeoglobus fulgidus) (UniProt O29494); experiment: activity assay; conditions: L7Ae restores translation of ON switch mRNA blocked by antisence RNA (PURE system); purified recombinant protein; protein details: His tag (pET-28b+, NdeI/XhoI)

By UniProt entry, the sequences of proteins in these tests, tags left out. Where a name states a change or a piece, a line headed by the entry shows the natural chain unless it says otherwise.
UniProt O29494: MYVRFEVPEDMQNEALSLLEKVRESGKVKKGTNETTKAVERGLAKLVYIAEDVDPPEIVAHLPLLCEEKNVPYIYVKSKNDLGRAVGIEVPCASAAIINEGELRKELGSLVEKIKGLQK

Sequence: GGCCAGAGUGGGCGUGAUGCAUGUCUAGGAAACUAGACAUGCUGACCCACUCUGGCC [Box C/D]
- functional effect [1]: active

Sequence: GGGAGACCACAACGGUUUCCCUCUAGAAAUAAUUUUGUUUAACUUUAAGAAGGAGAUAUACCAAUGGCCUCCUCCGAGGACGUCAUCAAGGAGUUCAUGCGCUUCAAGGUGCGCAUGGAGGGCUCCGUGAACGGCCACGAGUUCGAGAUCGAGGGCGAGGGCGAGGGCCGCCCCUACGAGGGCACCCAGACCGCCAAGCUGAAGGUGACCAAGGGCGGCCCCCUGCCCUUCGCCUGGGACAUCCUGUCCCCCCAGUUCCAGUACGGCUCCAAGGUGUACGUGAAGCACCCCGCCGACAUCCCCGACUACAAGAAGCUGUCCUUCCCCGAGGGCUUCAAGUGGGAGCGCGUGAUGAACUUCGAGGACGGCGGCGUGGUGACCGUGACCCAGGACUCCUCCCUGCAGGACGGCUCCUUCAUCUACAAGGUGAAGUUCAUCGGCGUGAACUUCCCCUCCGACGGCCCCGUAAUGCAGAAGAAGACUAUGGGCUGGGAGGCCUCCACCGAGCGCCUGUACCCCCGCGACGGCGUGCUGAAGGGCGAGAUCCACAAGGCCCUGAAGCUGAAGGACGGCGGCCACUACCUGGUGGAGUUCAAGUCCAUCUACAUGGCCAAGAAGCCCGUGCAGCUGCCCGGCUACUACUACGUGGACUCCAAGCUGGACAUCACCUCCCACAACGAGGACUACACCAUCGUGGAGCAGUACGAGCGCGCCGAGGGCCGCCACCACCUGUUCCUGUAGUAAUGAAUA [DsRed-Ex control mRNA]
- functional effect ([2]; no motif, slight repression only at 5-10 uM L7Ae, variant of Box C/D-DsRed-Ex …): less active

Sequence: GGGAGACCACAACGGUUUCCCUCUAGAAAUAAUUUUGUUUAACUUUAAGAAGGAGAUAUACCAAUGGGGCGUGAUGCGAAAGCUGACCCUGCCUCCUCCGAGGACGUCAUCAAGGAGUUCAUGCGCUUCAAGGUGCGCAUGGAGGGCUCCGUGAACGGCCACGAGUUCGAGAUCGAGGGCGAGGGCGAGGGCCGCCCCUACGAGGGCACCCAGACCGCCAAGCUGAAGGUGACCAAGGGCGGCCCCCUGCCCUUCGCCUGGGACAUCCUGUCCCCCCAGUUCCAGUACGGCUCCAAGGUGUACGUGAAGCACCCCGCCGACAUCCCCGACUACAAGAAGCUGUCCUUCCCCGAGGGCUUCAAGUGGGAGCGCGUGAUGAACUUCGAGGACGGCGGCGUGGUGACCGUGACCCAGGACUCCUCCCUGCAGGACGGCUCCUUCAUCUACAAGGUGAAGUUCAUCGGCGUGAACUUCCCCUCCGACGGCCCCGUAAUGCAGAAGAAGACUAUGGGCUGGGAGGCCUCCACCGAGCGCCUGUACCCCCGCGACGGCGUGCUGAAGGGCGAGAUCCACAAGGCCCUGAAGCUGAAGGACGGCGGCCACUACCUGGUGGAGUUCAAGUCCAUCUACAUGGCCAAGAAGCCCGUGCAGCUGCCCGGCUACUACUACGUGGACUCCAAGCUGGACAUCACCUCCCACAACGAGGACUACACCAUCGUGGAGCAGUACGAGCGCGCCGAGGGCCGCCACCACCUGUUCCUGUAGUAAUGAAUA [Box C/D-DsRed-Ex mRNA]
- functional effect ([2]; translation repression in PURE system): active

Sequence: GGUGGGCGUGAUGCGAAAGCUGACCCACC [antisence RNA (contains Box C/D mini)]
- functional effect [3]: active

Reference: patent publication US20110040077
